Values of other authors in patent US7138504B2, “Reagents and methods for mycophenolic acid immunoassay” (Microgenics Corporation, priority 2004, dated 2006).
For at least one compound, name, drawing or mass did not settle the structure.

Settings: cited from earlier work

In the case of `COc1c(C)c2c(c(O[C@@H]3O[C@H](C(=O)O)[C@@H](O)[C@H](O)[C@H]3O)c1C/C=C(\C)CCC(=O)O)C(=O)OC2` [7-O-Glucuronide MPA], the pharmacological activity is given as “pharmacologically inactive”.
